Data: PubChem BioAssay AID1347423 (Functional Genomics Laboratory (NCATS/FGL), 2020)
The campaign covered roughly 52,000 sequences. About 210 (0.4%) were called active.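 Rule for the calls: active = gene whose silencing raises cell survival under the drug, median off-target-corrected z-score across its silencing RNAs 2 or more; inactive = the rest.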 Some of the results follow.

Assay: Resistance to Poly (ADP-Ribose) Polymerase inhibitor: Gene Identification via Genome-wide siRNA Screen
Details: mouse BRCA2 R2336H ES cells, olaparib, CellTiter-Glo viability; active compounds read high
How it was run: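 Mouse BRCA2 R2336H ES cells were reverse-transfected with siRNA (20 nM final), treated at 48 h with 500 nM olaparib, and read by CellTiter-Glo after 72 h. Scores: MAD-based z per siRNA, median per gene, seed off-target correction.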

Sequence	z-score
GGGUUUGAUUCAUCAAAAATT against Peli1	inactive: -0.225
GCUAUUAAAAUAUGGGAAGTT against Olfr1314	inactive: -1.17
GGUAAUGGGAGCUAGUUUATT against 6330549D23Rik	inactive: 0.0492
GCUCCAUACUUUCACACGATT against H2-Q7	inactive: 0.174
GGGAUGUCUGUUGAAAUAATT against Prcc	inactive: -1.78
CGACAGAAACUAGAAACCCTT against 1500016L11Rik	inactive: -0.429
GGCCACUUGUGGACAGUUUTT against 2400009B11Rik	inactive: -2.59
GGCCCAUUAUGUUUAGUAATT against Gm1553	inactive: -0.0312
GCUUCUAGGGAUCCAAUACTT against 9130012D09Rik	inactive: -1.49
GGUCUGCUUUGUCUUGGUGTT against Olfr829	inactive: -1.78
GGCACUAAUUUCACUCUUCTT against Odz4	inactive: -1.77
GGCCCACAAUGUGAUUUUATT against Psap	inactive: 1.68
CGAUGGAUAAACCUACACCTT against Clmn	inactive: -1.36
GGUUUUGAUAACAGAACAUTT against Capza2	inactive: -0.212
GGGAAGCAGUGCUUCUUAGTT against Dars	inactive: -0.514
GGUUAUUAAGAGCACUUUCTT against Catsper3	inactive: -0.553
CCACCCAACAUCUAUGAGGTT against 1700037C18Rik	inactive: 1.11
GCUUGCCUAAUGAAACCUUTT against Gm964	inactive: 0.504
GGACAACAUGAACUGUCAGTT against Snrpd3	inactive: -2.78
CCUAUUCUUAACACCCUUGTT against Trfr2	inactive: -0.465
GGUCUCCUGUGGAAAUAUCTT against Olfr659	inactive: 0.454
GGAAACUGUGUCAUUAUUATT against Arhgap9	inactive: -0.326

Sequence	z-score
CCGUUGUGAACUACAAGCUTT against 2700038N03Rik	inactive: 1.53
GGUCUCUUUCAUGCUCGCATT against E030025L21Rik	inactive: 1.64
GGCCUCUCAUUUCUAGUCATT against Kdelr2	inactive: 0.95
GGUGAUGCUUCUUGGAGACTT against Rab37	inactive: 0.0636
GCAGUACGGGACAUCCACUTT against Bing4	inactive: -0.538
GGCUAGAGCAUCAAGGAAUTT against Vps26	inactive: 0.604
CCCACUUCGAGAGAAAAACTT against Pafah1b3	inactive: 1.21
GGUAAGAAGACAAACACUCTT against Ly6g6d	inactive: -0.432
GGUCUACGGCACCUUCUAUTT against Bsnd	inactive: -0.485
GGAAUAUGCCCAAGUUUUUTT against Catna1	inactive: -1.86
GGCUCUGUCCAACAUGAUGTT against Tnnt2	inactive: 0.34
GCCAAGCUCGCCAAGAUUATT against P4ha2	inactive: 0.0302
CCAGAGAUUCCAACUUAAATT against C130096D04Rik	inactive: -0.44
GCGGAAGUAUUACCAAGACTT against 1700001C02Rik	inactive: -2.49
GGAGGAAUCUUGGGUCUGATT against LOC237891	inactive: -0.422
GGUCAAUUCCCAUACCCUGTT against Trfr2	inactive: 0.815
CCUACACAUACAUUGAUGATT against Eppk1	inactive: 0.563
GCCUAAAUGAUGGUGCUUGTT against Klf4	inactive: 5.17
CGAAGUAAAUGUGAAUAGATT against 2610312E17Rik	inactive: -0.714
GGUGUUUAAACAGCACUGCTT against ORF63	inactive: 0.162
GCUCAACUCAAAGCCUGUATT against 2310061N23Rik	inactive: -1.96
GGGUUUCCAAGACAGACUATT against Il12rb1	inactive: -2.13

Part of the list above, in CSV form:
Sequence,z-score
GCUAUUAAAAUAUGGGAAGTT against Olfr1314,inactive: -1.17
GGUAAUGGGAGCUAGUUUATT against 6330549D23Rik,inactive: 0.0492
GCUCCAUACUUUCACACGATT against H2-Q7,inactive: 0.174

Next records follow:

Sequence	z-score
GGACAUGAGGACACCAUUGTT against Saa1	inactive: -0.33
CCAUUGUACAGAAAAACACTT against 3110057O12Rik	inactive: -0.504
CGGUUAUCUAGACUUAAAATT against BC029103	inactive: -0.231
GAUUUGGUGUCUGCCGAGATT against ORF31	inactive: 0.792
GGAAAAAGUUGGCAUCAUUTT against Zswim4	inactive: -0.512
GGAAAGCCAGAAAAUUCACTT against Ian6	inactive: 1.13
GGACCUUCUAUUAUUUGUATT against 5330408M12Rik	inactive: 1.2
GGAUGAGUUUUUAAAGUCATT against Otop2	inactive: -1
GGCUUUCCUCCAGAUAAACTT against Il6st	inactive: 0.443
CGCUUAUCAUGAACAAAGATT against C8b	inactive: -0.614
GGUUUUGUACUUUCAUAGATT against 4632417K18Rik	inactive: 0.686
GGUACCAAUUGAAGAUAUATT against 9030406N13Rik	inactive: 0.558
CCACACAAUCCAGUUAUAATT against 1700055D18Rik	inactive: -0.192
GGCCAAAAUCGGGCAAGAATT against 1110028N05Rik	inactive: -1.49
GCAGUGGUAGAUCUUAGAGTT against Lmcd1	inactive: -0.326
GGAAUGCAGCCAUCCUAUCTT against Mia	inactive: 0.193
GGUUGAUCGUGUCAUGUAGTT against 4933430F16Rik	inactive: 0.81
CCUAUAACAUCCACCUUCATT against D17Wsu94e	inactive: -1.66
GGGCAAACUCUAGAGCUACTT against Pdgfrl	inactive: 0.782
CGGGAUUAAUCUUUCUGGGTT against Clec2	inactive: 0.0652
GGAAUUGAGACCCAAUAUUTT against Cnot7	inactive: -0.494
GCACAGUUGGCAACCUUUATT against S100a9	inactive: -1.07
